Results are given in words; binding and its absence hold for the method and conditions named. In cells and extracts the contact can be indirect. Some binding calls cover weakened binding; strength is not graded here. Tags and fused reporters may be left off the sequences shown.
target: T1, Flag-tagged EWSR1(2-325)-ATF1(66-271) fusion (UniProt Q01844); test: co-IP
T1 sequence: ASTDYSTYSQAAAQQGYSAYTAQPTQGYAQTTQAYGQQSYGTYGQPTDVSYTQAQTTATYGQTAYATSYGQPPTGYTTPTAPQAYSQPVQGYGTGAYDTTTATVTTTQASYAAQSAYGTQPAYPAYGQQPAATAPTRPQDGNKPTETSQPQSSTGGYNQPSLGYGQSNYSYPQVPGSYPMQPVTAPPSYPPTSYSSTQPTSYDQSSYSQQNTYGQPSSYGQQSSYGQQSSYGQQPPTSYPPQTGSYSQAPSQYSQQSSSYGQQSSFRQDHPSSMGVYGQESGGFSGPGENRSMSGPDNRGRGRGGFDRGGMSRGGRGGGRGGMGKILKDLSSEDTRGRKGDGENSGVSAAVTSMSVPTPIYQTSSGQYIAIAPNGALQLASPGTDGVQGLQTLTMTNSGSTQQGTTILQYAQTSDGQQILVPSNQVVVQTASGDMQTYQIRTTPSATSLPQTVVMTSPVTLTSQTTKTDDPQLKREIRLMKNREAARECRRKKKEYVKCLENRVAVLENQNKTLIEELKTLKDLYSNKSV

By UniProt entry, the sequences of proteins in these tests, tags left out.
UniProt P16220: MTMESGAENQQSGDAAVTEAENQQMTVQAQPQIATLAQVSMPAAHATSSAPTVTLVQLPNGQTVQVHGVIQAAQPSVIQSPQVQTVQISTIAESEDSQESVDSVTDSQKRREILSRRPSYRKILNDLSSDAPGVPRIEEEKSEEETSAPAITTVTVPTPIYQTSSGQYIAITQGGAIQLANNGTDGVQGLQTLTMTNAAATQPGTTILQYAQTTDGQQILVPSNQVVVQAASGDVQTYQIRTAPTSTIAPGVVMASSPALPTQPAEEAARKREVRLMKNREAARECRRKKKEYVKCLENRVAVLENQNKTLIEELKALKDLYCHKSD
UniProt Q92793: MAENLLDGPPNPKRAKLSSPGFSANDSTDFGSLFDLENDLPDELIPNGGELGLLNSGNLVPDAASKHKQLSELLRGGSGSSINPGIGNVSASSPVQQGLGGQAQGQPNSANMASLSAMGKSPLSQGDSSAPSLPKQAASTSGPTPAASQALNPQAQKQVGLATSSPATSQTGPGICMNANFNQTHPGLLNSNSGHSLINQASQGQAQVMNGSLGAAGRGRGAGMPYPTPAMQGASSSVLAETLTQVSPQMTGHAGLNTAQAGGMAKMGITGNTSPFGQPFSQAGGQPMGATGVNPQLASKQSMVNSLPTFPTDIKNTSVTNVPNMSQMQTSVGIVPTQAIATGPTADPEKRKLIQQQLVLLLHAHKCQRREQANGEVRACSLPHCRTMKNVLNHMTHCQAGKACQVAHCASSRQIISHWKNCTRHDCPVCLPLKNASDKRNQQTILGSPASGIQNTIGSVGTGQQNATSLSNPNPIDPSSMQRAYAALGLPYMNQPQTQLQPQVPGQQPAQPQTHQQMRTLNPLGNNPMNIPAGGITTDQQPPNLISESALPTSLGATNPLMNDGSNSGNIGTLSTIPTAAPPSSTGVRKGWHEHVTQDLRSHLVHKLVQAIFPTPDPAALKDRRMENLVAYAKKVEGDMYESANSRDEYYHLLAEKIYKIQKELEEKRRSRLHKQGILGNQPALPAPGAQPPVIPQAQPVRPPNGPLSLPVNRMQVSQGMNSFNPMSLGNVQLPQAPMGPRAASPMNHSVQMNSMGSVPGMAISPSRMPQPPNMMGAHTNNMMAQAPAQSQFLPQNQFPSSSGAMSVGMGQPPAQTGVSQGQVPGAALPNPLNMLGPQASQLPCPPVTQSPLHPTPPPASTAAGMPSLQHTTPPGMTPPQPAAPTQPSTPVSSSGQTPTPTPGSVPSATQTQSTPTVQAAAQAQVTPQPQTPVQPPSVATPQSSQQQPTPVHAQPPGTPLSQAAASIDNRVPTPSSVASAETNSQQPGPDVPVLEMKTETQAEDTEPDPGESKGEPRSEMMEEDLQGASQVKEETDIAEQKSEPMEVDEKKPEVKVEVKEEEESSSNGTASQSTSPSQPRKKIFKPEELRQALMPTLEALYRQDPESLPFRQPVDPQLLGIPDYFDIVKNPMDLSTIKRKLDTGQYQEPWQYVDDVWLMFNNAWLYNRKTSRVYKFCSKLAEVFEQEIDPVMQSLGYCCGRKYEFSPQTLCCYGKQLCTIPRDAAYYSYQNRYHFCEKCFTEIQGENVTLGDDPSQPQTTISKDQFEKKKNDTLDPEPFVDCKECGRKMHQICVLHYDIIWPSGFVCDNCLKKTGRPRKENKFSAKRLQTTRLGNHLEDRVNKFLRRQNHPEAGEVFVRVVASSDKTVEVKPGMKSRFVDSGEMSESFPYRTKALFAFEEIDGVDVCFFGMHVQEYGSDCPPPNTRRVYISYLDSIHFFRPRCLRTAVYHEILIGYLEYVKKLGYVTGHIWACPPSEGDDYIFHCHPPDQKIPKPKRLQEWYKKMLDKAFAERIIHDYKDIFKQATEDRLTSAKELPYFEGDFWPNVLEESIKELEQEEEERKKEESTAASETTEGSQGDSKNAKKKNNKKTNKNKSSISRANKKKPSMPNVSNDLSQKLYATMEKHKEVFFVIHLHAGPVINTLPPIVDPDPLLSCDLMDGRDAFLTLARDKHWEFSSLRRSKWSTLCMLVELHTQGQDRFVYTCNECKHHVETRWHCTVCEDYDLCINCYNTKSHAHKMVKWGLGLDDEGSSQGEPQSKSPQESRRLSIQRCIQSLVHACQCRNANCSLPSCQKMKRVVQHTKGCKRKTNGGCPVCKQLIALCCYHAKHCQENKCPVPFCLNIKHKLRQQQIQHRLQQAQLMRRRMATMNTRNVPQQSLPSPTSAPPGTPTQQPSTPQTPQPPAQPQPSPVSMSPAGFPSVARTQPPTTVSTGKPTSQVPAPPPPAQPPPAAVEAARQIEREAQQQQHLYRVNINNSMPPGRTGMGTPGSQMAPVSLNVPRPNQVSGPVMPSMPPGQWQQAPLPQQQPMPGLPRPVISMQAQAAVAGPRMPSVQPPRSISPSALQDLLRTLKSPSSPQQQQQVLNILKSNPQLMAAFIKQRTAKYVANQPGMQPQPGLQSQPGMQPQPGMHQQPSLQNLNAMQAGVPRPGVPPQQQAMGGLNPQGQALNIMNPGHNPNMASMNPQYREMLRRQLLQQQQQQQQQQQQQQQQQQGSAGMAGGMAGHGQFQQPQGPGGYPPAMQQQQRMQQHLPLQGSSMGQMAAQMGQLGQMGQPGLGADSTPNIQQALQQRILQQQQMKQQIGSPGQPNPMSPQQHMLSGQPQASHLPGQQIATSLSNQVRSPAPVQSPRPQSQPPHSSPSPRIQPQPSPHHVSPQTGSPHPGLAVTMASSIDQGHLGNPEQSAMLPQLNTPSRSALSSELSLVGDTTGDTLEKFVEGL
UniProt P04406: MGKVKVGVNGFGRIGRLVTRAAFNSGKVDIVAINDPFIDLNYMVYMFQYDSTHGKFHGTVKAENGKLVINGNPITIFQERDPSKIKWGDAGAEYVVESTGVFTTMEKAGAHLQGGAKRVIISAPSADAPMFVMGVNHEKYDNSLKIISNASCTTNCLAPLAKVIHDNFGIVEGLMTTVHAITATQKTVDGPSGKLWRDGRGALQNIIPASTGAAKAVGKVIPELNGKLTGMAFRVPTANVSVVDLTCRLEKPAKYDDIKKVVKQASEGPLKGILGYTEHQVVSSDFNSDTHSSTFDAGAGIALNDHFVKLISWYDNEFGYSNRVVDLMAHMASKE
UniProt O14744: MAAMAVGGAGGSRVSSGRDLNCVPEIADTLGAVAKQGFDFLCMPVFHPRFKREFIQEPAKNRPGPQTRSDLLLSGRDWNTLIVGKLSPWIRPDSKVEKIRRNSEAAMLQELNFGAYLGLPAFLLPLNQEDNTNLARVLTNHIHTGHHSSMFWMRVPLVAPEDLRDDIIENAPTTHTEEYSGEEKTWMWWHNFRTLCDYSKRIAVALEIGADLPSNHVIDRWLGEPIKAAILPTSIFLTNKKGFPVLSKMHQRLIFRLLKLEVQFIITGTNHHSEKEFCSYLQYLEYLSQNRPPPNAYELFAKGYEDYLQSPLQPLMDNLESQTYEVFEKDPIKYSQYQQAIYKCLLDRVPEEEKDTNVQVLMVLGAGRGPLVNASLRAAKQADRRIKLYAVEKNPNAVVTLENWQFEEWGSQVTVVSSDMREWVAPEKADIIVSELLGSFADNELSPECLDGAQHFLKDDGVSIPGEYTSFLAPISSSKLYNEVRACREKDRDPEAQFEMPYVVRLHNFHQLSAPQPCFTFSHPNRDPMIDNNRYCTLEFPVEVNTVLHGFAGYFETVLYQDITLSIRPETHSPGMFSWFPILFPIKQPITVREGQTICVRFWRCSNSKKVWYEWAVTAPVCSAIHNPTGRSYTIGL

| binding | Substance |
| --- | --- |
| binds | CREB1 (from UniProt P16220 1-327) |
| no binding | CREB-binding protein (CBP) (from UniProt Q92793 1-2442) |
| no binding | GAPDH (from UniProt P04406 1-335) |
| binds | protein arginine methyltransferase 5 (PRMT5) (from UniProt O14744 1-637) (enzyme) |
